The target of experiment [1] is annexin A2 (ANXA2), endogenous in A549 cells (human (endogenous in A549)) (UniProt P07355). In words: co-IP.
Experiment [2] deals with human recombinant annexin A2 (ANXA2) (human) (UniProt P07355). Description: co-IP.

The chains behind the UniProt entries cited, without tags or fusion partners. Residues count along the entry.
UniProt P07355: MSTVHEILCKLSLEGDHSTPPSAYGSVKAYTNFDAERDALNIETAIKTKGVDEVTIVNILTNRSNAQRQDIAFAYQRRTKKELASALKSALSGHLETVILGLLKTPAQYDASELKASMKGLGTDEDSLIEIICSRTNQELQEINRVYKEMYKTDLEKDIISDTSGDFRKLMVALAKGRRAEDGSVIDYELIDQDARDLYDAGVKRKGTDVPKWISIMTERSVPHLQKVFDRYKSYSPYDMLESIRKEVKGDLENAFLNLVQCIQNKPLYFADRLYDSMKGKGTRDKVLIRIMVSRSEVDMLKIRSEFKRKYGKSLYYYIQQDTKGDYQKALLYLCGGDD
UniProt P19838, residues 1-433: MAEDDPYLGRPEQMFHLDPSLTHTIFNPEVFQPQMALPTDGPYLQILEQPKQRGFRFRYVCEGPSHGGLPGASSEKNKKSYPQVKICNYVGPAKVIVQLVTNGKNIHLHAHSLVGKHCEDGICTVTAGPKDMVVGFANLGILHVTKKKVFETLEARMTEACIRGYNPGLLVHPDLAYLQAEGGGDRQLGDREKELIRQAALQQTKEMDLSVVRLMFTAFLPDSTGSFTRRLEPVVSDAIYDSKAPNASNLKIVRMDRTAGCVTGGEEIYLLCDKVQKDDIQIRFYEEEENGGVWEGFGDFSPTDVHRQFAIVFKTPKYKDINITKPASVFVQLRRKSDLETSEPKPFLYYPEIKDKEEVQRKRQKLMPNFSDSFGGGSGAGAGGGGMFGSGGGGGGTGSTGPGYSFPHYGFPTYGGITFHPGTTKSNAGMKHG

No constants are given. Whether binding was seen depends on the method and setting. For some assays here: Binding seen in cells or lysates may run through a third protein. Some entries that bind do so weakly or less than the wild type.

Turning to “NF-κB p50 subunit, endogenous in A549 cells (from UniProt P19838 1-433)”, the binding entry in experiment [1] was “binds”.
With “recombinant NF-κB p50 subunit (from UniProt P19838 1-433)”, the binding entry in experiment [2] is recorded as “binds”.

These data come from doi:10.1101/2020.06.11.146027.
